Here are results for one molecule from PMC5966444.

Sequences of proteins named here, by UniProt entry; tags and fusion partners are left off. A change or cut given only in a name is not applied to a line headed by its entry.
UniProt P46867: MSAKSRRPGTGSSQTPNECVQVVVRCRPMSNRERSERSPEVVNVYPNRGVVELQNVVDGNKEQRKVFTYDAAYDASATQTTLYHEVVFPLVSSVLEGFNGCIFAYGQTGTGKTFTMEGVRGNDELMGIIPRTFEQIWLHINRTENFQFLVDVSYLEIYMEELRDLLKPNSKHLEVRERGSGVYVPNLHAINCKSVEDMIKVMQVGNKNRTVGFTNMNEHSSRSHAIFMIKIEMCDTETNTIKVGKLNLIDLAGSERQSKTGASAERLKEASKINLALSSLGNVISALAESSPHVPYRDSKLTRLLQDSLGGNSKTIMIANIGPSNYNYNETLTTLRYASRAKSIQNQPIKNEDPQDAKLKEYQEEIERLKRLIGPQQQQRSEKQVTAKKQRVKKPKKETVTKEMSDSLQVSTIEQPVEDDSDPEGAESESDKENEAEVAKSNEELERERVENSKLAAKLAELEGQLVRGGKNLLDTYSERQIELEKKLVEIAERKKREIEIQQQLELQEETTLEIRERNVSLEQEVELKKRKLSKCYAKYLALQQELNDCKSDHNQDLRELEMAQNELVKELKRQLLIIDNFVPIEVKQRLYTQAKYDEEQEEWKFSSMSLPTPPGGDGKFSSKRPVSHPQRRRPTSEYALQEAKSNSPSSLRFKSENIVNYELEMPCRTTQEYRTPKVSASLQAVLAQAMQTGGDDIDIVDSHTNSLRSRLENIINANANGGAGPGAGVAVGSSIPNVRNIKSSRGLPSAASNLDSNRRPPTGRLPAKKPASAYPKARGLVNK

The target of this assay is KLP68D-YFP, Kinesin-2 motor subunit KLP68D (2β) tagged with YFP (Drosophila) (UniProt P46867). Description: FRET or BRET; sensitized FRET (sFRET) in the proximal axon segment of lch5 neurons of dissected third instar Drosophila larvae, 76–79 h AEL; donor TQ (405 nm excitation, 480–495 nm), FRET channel 535–565 nm; ratio of FRET channel to TQ channel; also time-lapse at 5 Hz for up to 40 s. (In general: Bioluminescence resonance energy transfer reports proximity on the nanometre scale.)

These are yes or no findings as the source states them, for the method shown. Binding seen in cells or lysates may run through a third protein. Binding can be weak; no strength is given. Sequences can lack the tags named with a protein.

B1: recombinant ChAT (Choline Acetyltransferase) tagged with the mTurquoise fluorescent protein (enzyme, UniProt P07668 1-721)
chain: MASNEASTSAAGSGPESAALFSKLRSFSIGSGPNSPQRVVSNLRGFLTHRLSNITPSDTGWKDSILSIPKKWLSTAESVDEFGFPDTLPKVPVPALDETMADYIRALEPITTPAQLERTKELIRQFSAPQGIGARLHQYLLDKREAEDNWAYYYWLNEMYMDIRIPLPINSNPGMVFPPRRFKTVHDVAHFAARLLDGILSHREMLDSGELPLERAASREKNQPLCMAQYYRLLGSCRRPGVKQDSQFLPSRERLNDEDRHVVVICRNQMYCVVLQASDRGKLSESEIASQILYVLSDAPCLPAKPVPVGLLTAEPRSTWARDREMLQEDERNQRNLELIETAQVVLCLDEPLAGNFNARGFTGATPTVHRAGDRDETNMAHEMIHGGGSEYNSGNRWFDKTMQLIICTDGTWGLCYEHSCSEGIAVVQLLEKIYKKIEEHPDEDNGLPQHHLPPPERLEWHVGPQLQLRFAQASKSVDKCIDDLDFYVYRYQSYGKTFIKSCQVSPDVYIQLALQLAHYKLYGRLVATYESASTRRFLHGRVDCIRAASTEALEWAKAMCQGEGANVPLESDREDEEESRKVKFSIYSKDHLRELFRCAVARQTEVMVKNILGNGIDIPLLGLREASIEVTGEMHELFKDESYIISQCFLLSTSQVACSTDSFMGYGPVTPRGYGCSYNPHPEQIVFCVSAFYSCEDTSASRYAKSLQDSLDIMRDLLQN
With B1, the binding result is listed as “binds”.
